Source: PMC11065694
These are yes or no findings as the source states them, for the method shown. Binding seen in cells or lysates may run through a third protein. Here binding means that the protein was enriched with, or labelled near, the bait; the list need not be complete. A no says only that the protein was not detected with the bait. One block for each binder: values may come before it.

Sequences of proteins named here, by UniProt entry; tags and fusion partners are left off. Residues count along the entry.
UniProt P05106, residues 27-788: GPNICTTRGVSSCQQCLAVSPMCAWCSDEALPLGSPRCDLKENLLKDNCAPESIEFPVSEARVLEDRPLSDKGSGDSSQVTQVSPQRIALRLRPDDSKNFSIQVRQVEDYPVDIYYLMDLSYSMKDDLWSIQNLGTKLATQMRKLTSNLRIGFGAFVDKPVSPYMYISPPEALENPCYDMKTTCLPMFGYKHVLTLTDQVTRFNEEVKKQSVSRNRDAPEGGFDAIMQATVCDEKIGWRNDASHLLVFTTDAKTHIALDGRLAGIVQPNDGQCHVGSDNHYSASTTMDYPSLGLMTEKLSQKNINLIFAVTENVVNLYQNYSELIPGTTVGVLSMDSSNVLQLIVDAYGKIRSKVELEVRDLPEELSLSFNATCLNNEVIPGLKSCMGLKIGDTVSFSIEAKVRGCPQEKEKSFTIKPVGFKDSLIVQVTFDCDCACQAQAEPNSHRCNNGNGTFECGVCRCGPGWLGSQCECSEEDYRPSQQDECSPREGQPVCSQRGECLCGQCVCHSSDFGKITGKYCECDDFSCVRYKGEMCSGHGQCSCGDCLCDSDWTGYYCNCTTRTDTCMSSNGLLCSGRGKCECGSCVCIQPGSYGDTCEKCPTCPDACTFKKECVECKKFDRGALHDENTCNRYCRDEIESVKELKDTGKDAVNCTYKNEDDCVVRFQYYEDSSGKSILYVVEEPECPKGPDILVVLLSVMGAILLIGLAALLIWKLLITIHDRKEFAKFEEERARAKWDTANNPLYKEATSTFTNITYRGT

Target: CD61-flag (integrin β3) (human) (UniProt P05106)
Test: affinity purification with mass spectrometry; CD61-flag Co-IP lysates of CD103+CD61+ T cells compared with CD103+CD61- T cells; S-trap digestion; LC-MS/MS in DIA mode; label-free quantification

- binding: binds
B1: CD103 (integrin αE) (protein, UniProt P38570 19-1179)
chain: FNVDVARPWLTPKGGAPFVLSSLLHQDPSTNQTWLLVTSPRTKRTPGPLHRCSLVQDEILCHPVEHVPIPKGRHRGVTVVRSHHGVLICIQVLVRRPHSLSSELTGTCSLLGPDLRPQAQANFFDLENLLDPDARVDTGDCYSNKEGGGEDDVNTARQRRALEKEEEEDKEEEEDEEEEEAGTEIAIILDGSGSIDPPDFQRAKDFISNMMRNFYEKCFECNFALVQYGGVIQTEFDLRDSQDVMASLARVQNITQVGSVTKTASAMQHVLDSIFTSSHGSRRKASKVMVVLTDGGIFEDPLNLTTVINSPKMQGVERFAIGVGEEFKSARTARELNLIASDPDETHAFKVTNYMALDGLLSKLRYNIISMEGTVGDALHYQLAQIGFSAQILDERQVLLGAVGAFDWSGGALLYDTRSRRGRFLNQTAAAAADAEAAQYSYLGYAVAVLHKTCSLSYIAGAPRYKHHGAVFELQKEGREASFLPVLEGEQMGSYFGSELCPVDIDMDGSTDFLLVAAPFYHVHGEEGRVYVYRLSEQDGSFSLARILSGHPGFTNARFGFAMAAMGDLSQDKLTDVAIGAPLEGFGADDGASFGSVYIYNGHWDGLSASPSQRIRASTVAPGLQYFGMSMAGGFDISGDGLADITVGTLGQAVVFRSRPVVRLKVSMAFTPSALPIGFNGVVNVRLCFEISSVTTASESGLREALLNFTLDVDVGKQRRRLQCSDVRSCLGCLREWSSGSQLCEDLLLMPTEGELCEEDCFSNASVKVSYQLQTPEGQTDHPQPILDRYTEPFAIFQLPYEKACKNKLFCVAELQLATTVSQQELVVGLTKELTLNINLTNSGEDSYMTSMALNYPRNLQLKRMQKPPSPNIQCDDPQPVASVLIMNCRIGHPVLKRSSAHVSVVWQLEENAFPNRTADITVTVTNSNERRSLANETHTLQFRHGFVAVLSKPSIMYVNTGQGLSHHKEFLFHVHGENLFGAEYQLQICVPTKLRGLQVVAVKKLTRTQASTVCTWSQERACAYSSVQHVEEWHSVSCVIASDKENVTVAAEISWDHSEELLKDVTELQILGEISFNKSLYEGLNAENHRTKITVVFLKDEKYHSLPIIIKGSVGGLLVLIVILVILFKCGFFKRKYQQLNLESIRKAQLKSENLLEEEN

- binding: no binding
B2: integrin β7 (protein, UniProt P26010 20-798)
chain: ELDAKIPSTGDATEWRNPHLSMLGSCQPAPSCQKCILSHPSCAWCKQLNFTASGEAEARRCARREELLARGCPLEELEEPRGQQEVLQDQPLSQGARGEGATQLAPQRVRVTLRPGEPQQLQVRFLRAEGYPVDLYYLMDLSYSMKDDLERVRQLGHALLVRLQEVTHSVRIGFGSFVDKTVLPFVSTVPSKLRHPCPTRLERCQSPFSFHHVLSLTGDAQAFEREVGRQSVSGNLDSPEGGFDAILQAALCQEQIGWRNVSRLLVFTSDDTFHTAGDGKLGGIFMPSDGHCHLDSNGLYSRSTEFDYPSVGQVAQALSAANIQPIFAVTSAALPVYQELSKLIPKSAVGELSEDSSNVVQLIMDAYNSLSSTVTLEHSSLPPGVHISYESQCEGPEKREGKAEDRGQCNHVRINQTVTFWVSLQATHCLPEPHLLRLRALGFSEELIVELHTLCDCNCSDTQPQAPHCSDGQGHLQCGVCSCAPGRLGRLCECSVAELSSPDLESGCRAPNGTGPLCSGKGHCQCGRCSCSGQSSGHLCECDDASCERHEGILCGGFGRCQCGVCHCHANRTGRACECSGDMDSCISPEGGLCSGHGRCKCNRCQCLDGYYGALCDQCPGCKTPCERHRDCAECGAFRTGPLATNCSTACAHTNVTLALAPILDDGWCKERTLDNQLFFFLVEDDARGTVVLRVRPQEKGADHTQAIVLGCVGGIVAVGLGLVLAYRLSVEIYDRREYSRFEKEQQQLNWKQDSNPLYKSAITTTINPRFQEADSPTL
